System: MAPT mRNA
Assay: qPCR of MAPT mRNA
Type: cell-based
Conditions: Fig 3H

## tau: full length (FL) 0N4R splice isoform of tau, unmodified; recombinant or expressed in cells
Replicate 1
  MAPT mRNA 2^-ddCt: 1
Replicate 2
  MAPT mRNA 2^-ddCt: 1.171
  MAPT mRNA normalized to FL tau: 93.4819
Replicate 3
  MAPT mRNA 2^-ddCt: 0.9257
  MAPT mRNA normalized to FL tau: 99.0612

— article PMC11393453, “Phosphorylation of tau at a single residue inhibits binding to the E3 ubiquitin ligase, CHIP” (Nature Communications, 2024)
